Laboratory results taken from PubChem BioAssay AID270 (DTP/NCI, 2004).
The list does not hold the whole screen: it gathers some chemical classes. Other doses and runs of a compound may be missing. T/C is the treated group as % of the vehicle group. Schedule codes are those of the source, taken here to give the interval after Q, in days (D) or hours (H), and the number of doses after X. Some T/C values are marked as having no survivor count here; that says nothing about deaths at the dose. Some T/C values carry the count of animals alive at the toxicity check; where neither a count nor a note follows, no animal had died by that day. Some entries give survivors of the animals treated and no T/C: the source holds a T/C of zero for them, seemingly a mark for toxic or unscored doses. Some survivor counts are full or nearly so, which does not show that the dose was tolerated: survival well below the control is almost never listed, so the zero probably covers shortened survival too. Survivors were counted at the toxicity check, usually on the fifth day, unless a day is given; later deaths do not show. Counts of survivors are from the toxicity check, whose day is not always given; animals may have died later. Where survival is the endpoint, the PubChem record calls one and a half times the control and up active, and a quarter to a half above the control has no call in these data; cut-offs in other NCI protocols can differ. Some T/C values carry the count of animals alive at the toxicity check (mostly the fifth day); where neither a count nor a note follows, no animal had died by that day.

Tested on: BDF1 mice, s.c. Lewis lung carcinoma, T/C %
Assay: NCI In Vivo Anticancer Drug Screen. Data for tumor model Lewis Lung Carcinoma (subcutaneous) in B6D2F1 (BDF1) mice
Experimental: The antitumor activity of compounds was measured in mice bearing transplantable tumors. Survival or tumor size were measured and the results are expressed as the measurement made in the treated group (T) divided by the measurement made in the vehicle treated control group (C). The tumor model used in this assay is Lewis Lung Carcinoma (subcutaneous) in B6D2F1 (BDF1) mice

[1] = T/C endpoint: mean tumor weight, dose: 0.5 mg/kg/injection, schedule: Q01DX011 (ip), vehicle: saline, evaluated on day 12, higher T/C = larger tumour
[2] = T/C endpoint: mean tumor weight, dose: 1.0 mg/kg/injection, schedule: Q01DX011 (ip), vehicle: saline, evaluated on day 12, higher T/C = larger tumour
[3] = T/C endpoint: mean tumor weight, dose: 2.0 mg/kg/injection, schedule: Q01DX011 (ip), vehicle: saline, evaluated on day 12, higher T/C = larger tumour
[4] = T/C endpoint: median survival time, dose: 20.0 mg/kg/injection, schedule: Q01DX009 (ip), vehicle: saline, higher T/C = longer survival
[5] = T/C endpoint: median survival time, dose: 12.5 mg/kg/injection, schedule: Q01DX009 (ip), vehicle: saline with Tween-80, higher T/C = longer survival
[6] = T/C endpoint: median survival time, dose: 25.0 mg/kg/injection, schedule: Q01DX009 (ip), vehicle: saline with Tween-80, higher T/C = longer survival
[7] = T/C endpoint: median survival time, dose: 50.0 mg/kg/injection, schedule: Q01DX009 (ip), vehicle: saline with Tween-80, higher T/C = longer survival

O[C@H](CNCCBr)[C@@H](O)CNCCBr
T/C (T/C endpoint: mean tumor weight, dose: 0.3 mg/kg/injection, schedule: Q01DX011 (ip), vehicle: saline, evaluated on day 12, higher T/C = larger tumour): 122 % of control
T/C [1]: 49 % of control
T/C [2]: 159 % of control
T/C (T/C endpoint: mean tumor weight, dose: 2.0 mg/kg/injection, schedule: Q01DX011 (ip), vehicle: other, evaluated on day 12, higher T/C = larger tumour): 139 % of control
T/C [3]: 66 % of control
T/C (T/C endpoint: mean tumor weight, dose: 4.0 mg/kg/injection, schedule: Q01DX011 (ip), vehicle: other, evaluated on day 12, higher T/C = larger tumour): 67 % of control [5 of 6 alive]
survivor count (T/C endpoint: mean tumor weight, dose: 8.0 mg/kg/injection, schedule: Q01DX011 (ip), vehicle: other, higher T/C = larger tumour): 0 of 6
survivor count (T/C endpoint: mean tumor weight, dose: 16.0 mg/kg/injection, schedule: Q01DX011 (ip), vehicle: other, higher T/C = larger tumour): 0 of 6

CN(C)P(=O)(Nc1ccccn1)N(C)C
T/C (T/C endpoint: median survival time, dose: 5.0 mg/kg/injection, schedule: Q01DX009 (ip), vehicle: saline, higher T/C = longer survival): 102 % of control
T/C (T/C endpoint: median survival time, dose: 10.0 mg/kg/injection, schedule: Q01DX009 (ip), vehicle: saline, higher T/C = longer survival): 91 % of control
survivor count [4]: 10 of 10

CCN(CCCl)CC1OC(OC)C2OC(C)(C)OC12 (stereo unspecified)
T/C (T/C endpoint: median survival time, dose: 4.3 mg/kg/injection, schedule: Q01DX009 (ip), vehicle: saline, higher T/C = longer survival): 101 % of control
T/C (T/C endpoint: median survival time, dose: 7.2 mg/kg/injection, schedule: Q01DX009 (ip), vehicle: saline, higher T/C = longer survival): 99 % of control
survivor count (T/C endpoint: median survival time, dose: 12.0 mg/kg/injection, schedule: Q01DX009 (ip), vehicle: saline, higher T/C = longer survival): 10 of 10
survivor count [4]: 10 of 10

CC1=C2C(=CC(C)(C)C2O)C(O)C(C)(O)C12CC2 (stereo unspecified)
T/C (T/C endpoint: mean tumor weight, dose: 0.25 mg/kg/injection, schedule: Q01DX011 (ip), vehicle: saline, evaluated on day 12, higher T/C = larger tumour): 80 % of control
T/C [1]: 49 % of control
T/C [2]: 90 % of control
T/C [3]: 52 % of control

COc1ccc(O)c2c(=O)c3c(OC)cc4c(c3oc12)[C@@H]1C=CO[C@@H]1O4
T/C (T/C endpoint: median survival time, dose: 6.25 mg/kg/injection, schedule: Q01DX009 (ip), vehicle: saline with Tween-80, higher T/C = longer survival): 122 % of control
T/C [5]: 119 % of control
T/C [6]: 132 % of control
T/C [7]: 87 % of control
survivor count (T/C endpoint: median survival time, dose: 100.0 mg/kg/injection, schedule: Q01DX009 (ip), vehicle: saline with Tween-80, higher T/C = longer survival): 10 of 10

Nc1cc([As]=O)ccc1O (stereo unspecified)
T/C [5]: 100 % of control
T/C [6]: 93 % of control
T/C [7]: 90 % of control [9 of 10 alive]
survivor count (T/C endpoint: median survival time, dose: 75.0 mg/kg/injection, schedule: Q01DX009 (ip), vehicle: saline with Tween-80, higher T/C = longer survival): 3 of 10

N/C(=N\[N+](=O)[O-])N(CCO[N+](=O)[O-])N=O
T/C (T/C endpoint: mean tumor weight, dose: 2.5 mg/kg/injection, schedule: Q01DX011 (ip), vehicle: saline, evaluation day not shown, higher T/C = larger tumour): 66 % of control [survivor count not shown]
T/C (T/C endpoint: mean tumor weight, dose: 5.0 mg/kg/injection, schedule: Q01DX011 (ip), vehicle: saline, evaluation day not shown, higher T/C = larger tumour): 28 % of control [survivor count not shown]
T/C (T/C endpoint: mean tumor weight, dose: 10.0 mg/kg/injection, schedule: Q01DX011 (ip), vehicle: saline, evaluation day not shown, higher T/C = larger tumour): 106 % of control [survivor count not shown]
